# Source: patent US20240398727A1, “(S)-5-(1-(3,5-BIS(TRIFLUOROMETHYL)PHENOXY)ETHYL)CYCLOHEXANE-1,3-DIONE (NU-9) IMPROVES THE HEALTH OF DISEASED UPPER MOTOR NEURONS” (Northwestern University, priority 2021, published 2024)
# Tests used:
# [1] = system: UMNs of hSOD1^G93A-UeGFP mice; assay: Sholl analysis of arborization and branching, UMNs diseased by mSOD1 toxicity; format: cell-based, mouse; conditions: 3 days in culture, data not shown
# Method: UMN Cultures. P3 motor cortices isolated from WT-UeGFP, hSOD1^G93A-UeGFP, and prpTDP-43^A315T-UeGFP mice were dissected, dissociated, and cultured on glass coverslips (4×10^4 cells per 18 mm diameter coverslip, Fisherbrand) coated with poly-L-lysine (10 mg/mL, Sigma) as previously described (Ozdinler and Macklis 2006). Neurons were cultured in SFM [0.034 mg/L BSA, 1 mM L-glutamine, 25 U/mL penicillin, 0.025 mg/mL streptomycin, 35 mM glucose, and 0.5% B27 in Neurobasal-A medium (Life Technologies)] in a humidified tissue culture incubator in the presence of 5% CO2 at 37° C. […] Cultures were fixed after 3 days in vitro (DIV).
# (§1) UMNs were quantitatively analyzed for differences in neurite length and arborization complexity. Images taken with a 20× objective on the epifluorescent microscope (Nikon) were analyzed using the Neurite Tracer plugin from FIJI (NIH), which enables semi-autonomous tracing to measure the length of the axon. The aggregation of the neurite tracings centered at the soma generates a profile available for Sholl analysis.
# [2] = system: UMNs of hSOD1^G93A-UeGFP mice; assay: Axon outgrowth of UMNs diseased by mSOD1 toxicity in dissociated motor cortex culture; format: cell-based, mouse; conditions: 3 days in vitro, riluzole 500 nM, edaravone 1 μM
# Description: Mice. All animal procedures were approved by the Northwestern University Animal Care and Use committee and comply with the standards of the National Institutes of Health. All mice were on C57BL/6 background. Transgenic hemizygous males expressing a high copy number of the human SOD1 gene with a G93A mutation (B6SJL-Tg (SOD1*G93A)1Gur/J; The Jackson Laboratory) were bred to hemizygous UCHL1-eGFP females to generate hSOD1^G93A-UeGFP and WT-UeGFP (control) mice. UCHL1-eGFP mice were generated in the Ozdinler Lab; they are reporter lines for UMNs (Yasvoina, Genc et al. 2013), and are now available at Jackson Laboratory (stock no. 022476). Hemizygous UCHL1-eGFP females were bred to hemizygous prpTDP-43^A315T mice (procured from Jackson Laboratory, stock no. 010700) to generate prpTDP-43^A315T-UeGFP mice. prpTDP-43^A315T mice were supplied with gel diet (DietGel 76A, ClearH2O, ME, USA) to eliminate gastrointestinal (GI) complications. […]
# as §1, with “The aggregation of the neurite tracings centered at the soma generates a profile available for Sholl analysis.” left out
compound,measurement,setting,value
"Nc1nc2ccc(OC(F)(F)F)cc2s1 [riluzole, 2-Amino-6-(trifluoromethoxy)benzothiazole]",UMN arborization (Sholl measurements),[1],"improved UMN arborization, but to a lesser extent"
same,average length of UMN axons,"[2]; NU-9 400 nM, SFM control 227.62±19.63 μm, WT 321.41±17.54 μm",274.83±9.83 μm
same,overall axon outgrowth (distribution of longest axons),[2],improved overall axon outgrowth
